Here are results for 5 substances from patent publication EP0292291B1 (UNIVERSITY PATENTS, INC., priority 1987, dated 1988).

This series can be described thus: general procedure: Boc solid-phase peptide synthesis; p-methylbenzhydrylamine (pMBHA) resin; DCC/HOBt. To be noted: whole synthesis.

For the substance “Ac-[Nle⁴, Asp⁵, D-Phe⁷, Dpr¹⁰]-alpha-MSH₄₋₁₀NH₂”, the isolated yield came out at 36%.

In the case of “Ac-[Nle⁴, Asp⁵, D-Phe⁷, Dab¹⁰]-alpha-MSH₄₋₁₀NH₂”, the isolated yield came to 36%.

Substance Ac-[Nle⁴, Lys¹⁰]-alpha-MSH₄₋₁₀NH₂ came in with an isolated yield of 40%.

As for “Ac-[Nle⁴, D-Phe⁷, Lys¹⁰, Gly¹¹]-alpha-MSH₄₋₁₃NH₂”, the isolated yield (scale 0.5 mmol) is reported as 22%.

Regarding Ac-[Nle⁴, Asp⁵, Lys¹⁰]-alpha-MSH₄₋₁₀NH₂, the isolated yield is recorded as 37%.
